The whole screen tested about 360,000 compounds, of which about 7,500 (2.1%) were called active. The shares of active, inactive and inconclusive entries below differ from those in the screen. Calls come from the whole dose curve; as a rule, active = well fitted inhibition curve with a large enough effect; inconclusive = small, poorly fitted or top-dose-only effect, or effect the other way; inactive = flat fitted curve, though single readings scatter. Potencies beside an inconclusive call are fits to weak or partial responses and may not hold up.
Assay: Nrf2 qHTS screen for inhibitors; note: nearly all actives have a fitted effect of over 60% in size
Settings: A549 ARE-Fluc reporter, luciferase luminescence, 18-24 h; series mostly up to 46 µM
Summary of the method: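 A549 ARE_Fluc cells, 5000/well, 5% FBS OPTI-MEM; compounds in dose-response, 18-24 h at 37 °C/5% CO2; CellTiter-Fluor viability read (Ex 405/Em 525), then BugLite luciferase luminescence = Nrf2 activity.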
With `O=C(Nc1ccc2c(c1)OCO2)c1ccc(Cl)cc1Cl` the Potency was inconclusive: 0.92 µM [activator, full curve]. For `COc1ccccc1NCc1cc(=O)oc2c(C)c(O)ccc12`, the Potency was inconclusive: 32.6 µM [activator, partial curve, poor fit]. With `Cc1ccccc1-c1cc2nc(C)c(C)c(=O)n2[nH]1` the Potency was inconclusive: 18.4 µM [activator, single point]. In the case of `CN(c1ccc(C(=O)Nc2ccc3c(c2)OCCO3)cc1)S(C)(=O)=O`, the Potency is reported as inconclusive: 2.06 µM [activator, partial curve]. With `CCN(CC)S(=O)(=O)c1cc(NC(=O)c2ccc3c(c2)NC(=O)C(C)S3)ccc1C` (stereo not drawn) the Potency was inconclusive: 20.6 µM [falling, single point]. For `O=C(O)c1ccc(OCCCCCCOC2CCCCO2)cc1` (stereo not drawn), the Potency was inconclusive: 20.6 µM [falling, partial curve, poor fit]. With `O=C(NCc1csc(-c2ccccc2)n1)c1cc(F)cc2c1OCOC2` the Potency was inconclusive: 16.4 µM [activator, single point]. With `c1ccc(-c2cccc(-c3ccccc3)n2)cc1` the Potency was inconclusive: 18.4 µM [activator, single point]. In the case of `C=CC[n+]1ccc(/C=C2\C=Cc3cc(C)ccc3N2CC)c2ccccc21`, the Potency is reported as active: 7.31 µM. In the case of `Cc1cc(C)c(S(=O)(=O)Nc2cccc3cccnc23)c(C)c1`, the Potency is reported as active: 2.91 µM. In the case of `O=C1c2ccccc2NC(c2ccccc2O)N1c1ccc(F)cc1` (stereo not drawn), the Potency is reported as inconclusive: 4.11 µM [activator, partial curve]. For `CC(C(=O)OCC(=O)Nc1ccc(S(=O)(=O)N2CCCCC2)cc1)N1C(=O)c2ccccc2C1=O` (stereo not drawn), the Potency was inconclusive: 25.9 µM [falling, single point]. In the case of `CC(c1ccccc1)C(CC(=O)O)C(=O)NC1CCCCC1` (stereo not drawn), the Potency is reported as “inactive”. For `COc1ccc(C(=O)Nc2ccccc2C(=O)Nc2ccccc2C(=O)O)cc1`, the Potency was “inactive”. For `O=C(NCc1ccc2c(c1)OCO2)c1ccc(CSCc2ccc(Cl)cc2)o1`, the Potency was “inactive”. In the case of `O=C(NC(=S)NNC(=O)c1cnccn1)c1ccc(Cl)cc1`, the Potency is reported as active: 5.8 µM. For `CCSc1nn(CC(=O)Nc2ccc(C(=O)OC)cc2)c(N)c1S(=O)(=O)c1ccc(C)cc1`, the Potency was active: 23.1 µM. For `COc1ccccc1NC(=O)c1sc2nc(N3CCOCC3)c3c(c2c1N)CCCC3`, the Potency was inconclusive: 2.59 µM [falling, partial curve, poor fit]. For `COc1cccc(-n2nnc(-c3nc(-c4ccccc4F)no3)c2C)c1`, the Potency was inconclusive: 18.4 µM [activator, single point]. For `CC(=O)N1CCC2(CC1)C/C(=N\NC(=S)Nc1ccccc1F)c1cc(O)ccc1O2`, the Potency was inconclusive: 20.6 µM [falling, single point]. With `O=C1C(=O)c2ccc(-c3ccccc3)cc2-c2ccccc21` the Potency was active: 20.6 µM. With `COc1ccc(-c2nc3c(c(SCC(=O)N4CCCCC4)n2)Cc2c(CO)cnc(C)c2O3)cc1` the Potency was “inactive”. For `CCc1nnc(NC(=O)c2cc(Cl)ccn2)s1`, the Potency was inconclusive: 7.31 µM [activator, partial curve]. For `CCNC(=O)COC(=O)c1cc(C)n(-c2ccccc2)c1C`, the Potency was inconclusive: 18.4 µM [activator, partial curve]. With `C/C(=N\NC(=O)c1cccs1)c1c(O)cc(C)oc1=O` the Potency was inconclusive: 6.51 µM [activator, full curve]. For `CCc1ccc(C(=O)Nc2nc3ccccc3[nH]2)cc1`, the Potency was inconclusive: 8.2 µM [falling, partial curve, poor fit]. With `NC(=O)CSc1nc2ccc(NC(=O)COc3ccccc3)cc2s1` the Potency was inconclusive: 3.66 µM [activator, partial curve, poor fit]. In the case of `COC(=O)c1[nH]c2cc(OC)ccc2c1N`, the Potency is reported as inconclusive: 16.4 µM [activator, partial curve, poor fit]. With `CN(C)c1cc[n+](CC(=O)Nc2c(Cl)cc(Cl)cc2Cl)cc1` the Potency was inconclusive: 18.4 µM [falling, single point]. For `O=C(Nc1ccc(-n2cccn2)cc1)C1CCCCN1Cc1cccc2c1OCO2` (stereo not drawn), the Potency was “inactive”. In the case of `COc1ccc(-n2nc(C(=O)Nc3ccc(OC)c(OC)c3)c3c4ccccc4n(C)c3c2=O)cc1`, the Potency is reported as inconclusive: 20.6 µM [falling, single point]. For `Fc1ccc(CN2CCN(c3ncnc4scc(-c5ccc(F)cc5)c34)CC2)cc1`, the Potency was inconclusive: 29.1 µM [falling, single point]. In the case of `CN(CC(=O)Nc1ccc2c(c1)CCC2)CC(=O)Nc1ccccc1Br`, the Potency is reported as inconclusive: 29.1 µM [falling, single point]. In the case of `O=C(NC(=S)Nc1ccccc1O)c1ccc(Cl)cc1Cl`, the Potency is reported as inconclusive: 18.4 µM [activator, single point]. In the case of `O=C(CSc1nc(-c2ccco2)cc(C(F)(F)F)n1)NN1CCOCC1`, the Potency is reported as inconclusive: 16.4 µM [falling, partial curve, poor fit]. In the case of `CC(C)=C1C2CCC1C(C(=O)Nc1sc(C)c(-c3ccc(C(C)C)cc3)c1C(N)=O)C2C(=O)O` (stereo not drawn), the Potency is reported as inconclusive: 18.4 µM [falling, single point]. With `COc1nnc(OC)c2ccccc12` the Potency was “inactive”. In the case of `O=C(CSc1nnc(-c2ccccc2)c(-c2ccccc2)n1)N1CCc2ccccc21`, the Potency is reported as inconclusive: 29.1 µM [falling, single point]. For `COc1ccc(CC(NC(C)=O)C(=O)NC2CCN(c3nc(C)cc(C)c3C#N)CC2)c(OC)c1` (stereo not drawn), the Potency was “inactive”. For `CCOC(=O)CSCc1nc(-c2ccc(Cl)cc2)oc1C`, the Potency was inconclusive: 18.4 µM [falling, single point]. With `CC(C)(C)N(C(=O)Cn1nnc(-c2ccc(F)cc2)n1)C(C(=O)NC1CCCC1)c1ccncc1` (stereo not drawn) the Potency was inconclusive: 5.8 µM [falling, full curve, poor fit]. For `CCOn1c(=O)c(-c2cc3ccccc3o2)[n+]([O-])c2ccccc21`, the Potency was inconclusive: 14.6 µM [activator, partial curve]. In the case of `N=c1n(CCN2CCCCC2)c2ccccc2n1CC(O)c1ccc(Cl)c(Cl)c1` (stereo not drawn), the Potency is reported as “inactive”.

Source: PubChem BioAssay AID504444 (National Center for Advancing Translational Sciences (NCATS), 2011)
Potency is the fitted concentration of half-maximal effect.
